Laboratory results from US20160317560A1, “PARTICLES CONTAINING PHOSPHOLIPIDS OR BIOACTIVE FATTY ACIDS AND USES THEREOF” (THE UNIVERSITY OF NORTH CAROLINA AT CHAPEL HILL, priority 2013, published 2016).
At least one structure is not confirmed: it was looked up by name or label, or the drawing left a doubt.

Tested on: bone marrow derived mouse macrophages
Experiment: Inflammasome activation in bone marrow derived mouse macrophages
Format: cell-based
Settings: 1 μm and 80×320 nm particles; soluble form at the same dose; FIG. 19
Text: FIG. 19. Anti-inflammatory Programming Particles.
Disclosed herein are data showing emergent properties when bioactive fatty acids and phospholipids are delivered via the particles described herein. […] Other phospholipids and bioactive fatty acids could have similar properties when particulated as described herein.

## CC/C=C\C/C=C\C/C=C\C/C=C\C/C=C\C/C=C\CCC(=O)O [DHA in soluble form, Docosahexaenoic acid]
  inflammasome activation / signaling: no effect on inflammation
